Measured values reported in US20260272801A1, “BIOCATALYTIC SYNTHESIS OF UNNATURAL MYCOSPORINE-LIKE AMINO ACIDS” (University of Florida Research Foundation, Incorporated, priority 2022, published 2026).

Tested on: MysD
Experiment: In vitro MysD reaction with amino acid substrates (LC-HRMS detection of MAA products)
Assay type: biochemical, Nostoc linckia NIES-25
Conditions: 5 mM amino acid, 50 uM mycosporine-glycine, 5 mM ATP, 0.5 uM MysD, pH 8.0, room temperature, 4 hours
Description: The reaction solution contained 50 mM HEPES, pH 8.0, 10 mM MgCl2, 50 uM mycosporine-glycine (MG), 5 mM amino acid substrates, and 5 mM ATP. The reactions were initiated by adding 0.5 uM MysD and then carried out at room temperature for 4 hours. The reactions were then terminated and centrifuged.
In Vitro MysD Reactions. MG was purified from extracts of E. coli expressing MysAB2C by HPLC and used as the substrate for the MysD reactions. The quality of MG was calculated based on its extinction coefficient (28,100 M^−1cm^−1). The MysD reactions included MG (50 μM), Mg^2+ (10 mM), unnatural amino acid substrates (5 mM), and ATP (5 mM) in 50 mM HEPES, pH 8.0. The reactions were initiated by adding MysD (0.5 μM) and then incubated at room temperature for 4 hours. All reactions were quenched by heat inactivation at 95° C. for 10 min. After centrifugation at 20,000×g for 15 min, the clear supernatants were collected for LC-HRMS analysis.
The reactions were terminated and then analyzed in the HPLC and/or LC-MS analysis.
HPLC and LC-MS Analysis. Samples were analyzed on a Shimadzu Prominence UHPLC system (Kyoto, Japan) coupled with a PDA detector. Unless stated elsewhere, the following HPLC procedure was performed. […]

NCCC[C@H](N)C(=O)O [L-ornithine]
use as amino acid substrate by MysD to produce MAA products: could be used by MysD
